Among all 400,000 compounds or so, about 13,000 (3.2%) were called active. This list was built around the results that the source calls inconclusive (neither active nor inactive); the mix of calls is not that of the screen. Calls come from the whole dose curve; as a rule, active = well fitted cell-killing curve with a large enough effect; inconclusive = small, poorly fitted or top-dose-only effect, or effect the other way; inactive = flat fitted curve, though single readings scatter. Where the call is inconclusive, the potency comes from a doubtful curve fit.
Experiment: qHTS assay for MDR1-selective chemotherapeutics: Primary screen using the drug-selected MDR subline cells KB-V1; note: nearly all actives have a fitted effect of over 60% in size
Conditions: KB-V1 MDR cells viability, CellTiter-Glo, 72 h; activity change, negative = cytotoxicity: at 46.1 µM (top of the series)
How it was run: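 In this primary screen, KB-V1 cells overexpressing P-gp are incubated with library compounds (lowest to highest concentration) for 72 h at 37 degrees C before a luminescent ATP viability read.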
% is set by controls: 0 for no effect and ±100 for the full control effect; potency is the fitted concentration of half-maximal effect.

Structure (SMILES)	Potency	activity change, negative = cytotoxicity
CCOc1ccc2c(c1)sc(N)[n+]2Cc1cc(C)cc2cccnc12	active: 1.3 µM	
O=C1OC(NCc2cccnc2)(c2ccc(Cl)cc2)c2ccccc21 (stereo not drawn)	inconclusive: 14.6 µM [cytotoxic, partial curve, poor fit]	
COc1cc(/C=N/NC(=O)c2ccccc2O)ccc1OCC(=O)Nc1ccccc1		inactive: -9.64%
Cc1ccc(S(=O)(=O)N(C)C)cc1NC(=S)Nc1ccc2[nH]c(=O)[nH]c2c1		inactive: 12.9%
O=C(NCC1CCCO1)C(=O)NCC(c1ccco1)N1CCN(c2ccccc2)CC1 (stereo not drawn)	active: 20.6 µM	
Cc1ccc(S(=O)(=O)N(C)c2cc(S(N)(=O)=O)c(C)cc2C)cc1		inactive: -11.1%
O=C(NCc1nc(-c2ccc(C(F)(F)F)cc2)no1)Nc1cc(Cl)cc(Cl)c1	inconclusive: 20.6 µM [cytotoxic, single point]	
COc1ccc(NC(=O)CCn2nnc(-c3ccc(C)cc3)n2)cc1OC	inconclusive: 13 µM [cytotoxic, partial curve, poor fit]	
Cc1cc(C(=O)NNC(=S)NC(=O)/C=C/c2ccccc2Cl)n[nH]1		inactive: 11.7%
O=C(Nc1cccc(N=Cc2cc(Br)cc(Br)c2O)c1)c1ccco1		inactive: -24.7%
N#C/C(=C/c1cn(-c2ccccc2)nc1-c1cccc(S(=O)(=O)N2CCOCC2)c1)C(=O)NCc1ccco1		inactive: -6.08%
CCOc1ccccc1N1CCN(C(=O)CN2C(=O)NC3(CCCC3)C2=O)CC1	inconclusive: 18.4 µM [cytotoxic, single point]	
CCOc1ccc(C(C(=O)NC2CCCC2)N(C(=O)CNC(=O)c2ccco2)c2cccnc2)cc1 (stereo not drawn)		inactive: 0.686%
C=CCNc1nc(C(=O)OCC(=O)Nc2ccccc2C(F)(F)F)cs1	inconclusive: 29.1 µM [rising, single point]	
CNCc1ccccc1OCc1ccc(F)cc1		inconclusive: -17.1%
CC1CN(C(=O)N2c3ccccc3Sc3ccccc32)C(C)CC1=O (stereo not drawn)	inconclusive: 18.4 µM [cytotoxic, partial curve, poor fit]	
CC12CCC(O)CC1=CCC1C2CCC2(C)C(c3ccn[nH]3)CCC12 (stereo not drawn)	inconclusive: 29.1 µM [cytotoxic, single point]	
CCOc1ccc(-c2nonc2NC(=O)c2ccc(C)cc2)cc1OCC		inactive: -1.48%
CC(=O)O[C@]1(C(C)=O)CCC2C3C=C(C)C4=CC(=O)CC[C@]4(C)C3CC[C@@]21C (stereo partly drawn)		inactive: -17.7%
CCOC(=O)C1(Cc2ccccc2)CCN(Cc2cccn2-c2nccs2)CC1		inactive: -0.42%
O=C(NCc1ccc(F)cc1)c1cnc2sccn2c1=O	inconclusive: 29.1 µM [rising, partial curve, poor fit]	
COC(=O)c1ccc(OCCOc2ccccc2)cc1	inconclusive: 0.184 µM [rising, full curve, poor fit]	
COc1ccc(C(=O)NC2CCCc3ccccc32)cc1Br (stereo not drawn)	inconclusive: 8.2 µM [cytotoxic, partial curve]	
COc1ccc(CNC(=O)c2sc(=O)n(Cc3cc(Cl)ccc3OC)c2C)cc1	inconclusive: 9.2 µM [cytotoxic, partial curve]	
O=C(C(=Cc1ccccc1)CN1CCCCC1)c1ccccc1	inconclusive: 3.26 µM [cytotoxic, partial curve, poor fit]	

Of the compounds above, these have a furan ring, fused or not:
Structure (SMILES)	Potency	activity change, negative = cytotoxicity
O=C(NCC1CCCO1)C(=O)NCC(c1ccco1)N1CCN(c2ccccc2)CC1 (stereo not drawn)	active: 20.6 µM	
O=C(Nc1cccc(N=Cc2cc(Br)cc(Br)c2O)c1)c1ccco1		inactive: -24.7%
N#C/C(=C/c1cn(-c2ccccc2)nc1-c1cccc(S(=O)(=O)N2CCOCC2)c1)C(=O)NCc1ccco1		inactive: -6.08%
CCOc1ccc(C(C(=O)NC2CCCC2)N(C(=O)CNC(=O)c2ccco2)c2cccnc2)cc1 (stereo not drawn)		inactive: 0.686%

Later entries.

Structure (SMILES)	Potency	activity change, negative = cytotoxicity
CCOc1ccc(-c2nc(SCC(=O)Nc3ccc4c(c3)OCCO4)c(-c3ccc(F)cc3)[nH]2)cc1	inconclusive: 0.366 µM [rising, full curve, poor fit]	
CCc1sc(C(=O)Nc2ccc(NC(C)=O)cc2)cc1C	inconclusive: 8.2 µM [cytotoxic, partial curve, poor fit]	
Cc1nc(-c2ccc(S(=O)(=O)NCc3cccnc3)s2)cs1	inconclusive: 23.1 µM [cytotoxic, single point]	
CC(C)CC(OC(=O)c1ccc(Cl)nc1)C(=O)NC1CCCC1 (stereo not drawn)	inconclusive: 14.6 µM [cytotoxic, partial curve]	
CC(C)c1ccccc1OCC(O)CN1CCN(S(=O)(=O)c2ccc([N+](=O)[O-])cc2)CC1 (stereo not drawn)	inconclusive: 4.11 µM [cytotoxic, full curve, poor fit]	
Cc1[nH]nc(SCC(=O)N(C)c2ccccc2)c1[N+](=O)[O-]		inactive: 11.4%
Cc1ccc(NCCCn2cnc(C(=O)Nc3ccc(C)c(C)c3)n2)cc1C	inconclusive: 23.1 µM [cytotoxic, partial curve, poor fit]	
CC(C)CNS(=O)(=O)c1ccc(C(=O)Nc2ccc3c(c2)OCCO3)cc1	inconclusive: 23.1 µM [cytotoxic, single point]	
CCc1nc2ccc(C(=O)NCCN3CCOCC3)cn2c1N(C=O)Cc1ccc(OC)cc1		inactive: -5.2%
CC(C)n1nnnc1C1c2ccccc2C(=O)N1CCc1ccccc1F (stereo not drawn)	inconclusive: 4.61 µM [rising, full curve]	
Cc1ccc2[nH]c(=O)c(CN(Cc3nnnn3C3CCCC3)C3CCCCC3)cc2c1		inactive: -20.6%
COc1cccc(OC)c1C(=O)Nc1cccc(-c2nc3cc(C)cc(C)c3o2)c1	inconclusive: 29.1 µM [rising, single point]	
CSC1=C(C#N)C(c2ccccc2)C(C(C)=O)=C(C)N1 (stereo not drawn)		inactive: 11.3%
CCCCn1c(=NC(C)=O)c(C#N)cc2c(=O)n3cccc(C)c3nc21		inactive: -0.871%
Clc1ccc2nc(-c3ccc(Br)o3)c(Nc3ccc4c(c3)OCCO4)n2c1	inconclusive: 18.4 µM [rising, single point]	
COc1ccc(CN(C)C(=O)c2cccc(S(=O)(=O)N3CCc4ccccc43)c2)c(OC)c1	inconclusive: 29.1 µM [cytotoxic, single point]	
O=C(CCOc1ccccc1)N1CCN(S(=O)(=O)c2ccccc2F)CC1	active: 20.6 µM	
CN[C@H]1CCc2cc(OC)c(OC)c(OC)c2-c2ccc(OC)c(=O)cc21	active: 1.16 µM	
Cc1cccn2c(=O)c(/C=C(\C#N)S(=O)(=O)c3ccccc3)c(Oc3ccc(Cl)cc3)nc12	inconclusive: 23.1 µM [cytotoxic, single point]	
COc1ccc(Nc2ncnc3sc(C)cc23)c(OC)c1	inconclusive: 18.4 µM [cytotoxic, single point]	
CCC(=O)OCCCNc1nc(-c2ccc(Cl)cc2)nc2ccccc12		inactive: -18.7%
COc1ccc(NC(=O)N2CCc3ccccc32)cc1	inconclusive: 16.4 µM [cytotoxic, single point]	
Cc1ccc(OCc2ccc(C(=O)N3CCCC3)o2)c([N+](=O)[O-])c1	inconclusive: 14.6 µM [cytotoxic, single point]	
Cc1nc(-c2ccc(S(=O)(=O)Nc3ccccc3C)cc2)co1		inactive: -0.35%
CCC(CC)C(=O)N(C)c1c(C)nc2c(OCc3ccc(C(F)(F)F)cc3)cccn12		inactive: -0.432%

Structure (SMILES)	Potency	activity change, negative = cytotoxicity
COc1cc(OC)c(OC)cc1/C=N/Nc1nc2ccccc2[nH]1		inactive: -2.18%
COc1cc(N2C(=O)C=CC2=O)ccc1N1C(=O)C=CC1=O	inconclusive: 20.6 µM [cytotoxic, single point]	
CCCCn1nc(NC(=O)c2cccs2)c2cc3ccccc3nc21	active: 25.9 µM	
Clc1ccc(SCCOCCN2CCCCC2)cc1	inconclusive: 14.6 µM [cytotoxic, partial curve]	
COc1ccc2c(C)cc(SCC(=O)Nc3cccnc3Cl)nc2c1	inconclusive: 9.2 µM [cytotoxic, partial curve, poor fit]	
Cc1cccc(-n2ccnc2SCC(=O)Nc2nccs2)c1C	inconclusive: 29.1 µM [cytotoxic, single point]	
CN(C)c1ccc(N=Nc2ccccc2Br)cc1		inactive: 3.46%
O=C(Cn1nnc(-c2cccc(C(F)(F)F)c2)n1)NNS(=O)(=O)c1cccc(C(F)(F)F)c1		inactive: 3.35%
Cc1ccc(NC(=O)Cn2c(C)cc(C)c(C#N)c2=O)cc1F		inactive: -12.5%
CC(O)CN1CCN(C(=O)CN2C(=O)NC(c3ccccc3)(c3ccccc3)C2=O)CC1 (stereo not drawn)	inconclusive: 29.1 µM [rising, single point]	
O=C(Nc1ccccc1N1CCOCC1)c1cc(=O)[nH]c2ccccc12		inactive: 3.31%
Cc1cc(/C=N/n2cnnc2)c(C)n1-c1ccc(OCc2ccc(Cl)cc2Cl)cc1	active: 5.17 µM	
Cc1ccccc1OCCNc1cc(N2CCCCC2)ccc1[N+](=O)[O-]	inconclusive: 23.1 µM [cytotoxic, partial curve]	
CC(=O)c1cc2c(cc1NC(=O)c1cc(C)nn1-c1ccccc1)OCO2		inactive: -14.3%
CCc1ccc(N(C(=O)c2snc(C(N)=O)c2N)C(C(=O)NCC2CCCO2)c2cccs2)cc1 (stereo not drawn)		inactive: -12.1%
Cc1ccc2oc3c(c(=O)c2c1)C(c1cccc(Cl)c1)N(CCCN1CCOCC1)C3=O (stereo not drawn)	inconclusive: 32.6 µM [rising, single point]	
Oc1cccc(C2c3[nH]c4ccccc4c3CCN2Cc2ccc3c(c2)CCO3)c1 (stereo not drawn)	active: 18.4 µM	
COc1cccc2sc(Nc3nnc(-c4cccs4)o3)nc12	inconclusive: 3.66 µM [cytotoxic, full curve]	
Nc1ccn(CC(=O)N[C@H](CO)Cc2c[nH]c3ccccc23)c(=O)n1		inactive: 7.69%
Cn1cnc2c(cnn2C)c1=N		inactive: 16%
CCOc1ccc(/C=N/NC(=O)c2nnn(-c3nonc3N)c2-c2ccc(OCC)cc2)cc1	inconclusive: 29.1 µM [rising, single point]	
CCNC(=S)Nc1ccc(Cc2nc3ccccc3[nH]2)cc1		inactive: 14.5%
O=C(Nc1ccc(Cl)cc1Cl)[C@@H]1CC=C[C@@H]2CCN(Cc3ccccc3)C(=O)[C@@H]21	inconclusive: 9.2 µM [cytotoxic, partial curve]	

An excerpt from above in order of count of non-hydrogen atoms, falling:
Structure (SMILES)	Potency	activity change, negative = cytotoxicity
Cc1ccccc1OCCNc1cc(N2CCCCC2)ccc1[N+](=O)[O-]	inconclusive: 23.1 µM [cytotoxic, partial curve]	
COc1ccc2c(C)cc(SCC(=O)Nc3cccnc3Cl)nc2c1	inconclusive: 9.2 µM [cytotoxic, partial curve, poor fit]	
COc1cc(OC)c(OC)cc1/C=N/Nc1nc2ccccc2[nH]1		inactive: -2.18%
